Data as given in PubChem BioAssay AID1259424 (University of Nebraska Medical Center, 2018).
Assay: 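Seek colon cancer survival genes behaving like KSR1, using a six-gene signature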 (primary screen). Cell system: human HCT116 colon cancer cells. Reagents: siRNA pool against human genes, 50 nM. Detection: 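Six signature mRNAs by branched-DNA multiplex assay, scaled to two housekeeping genes and non-targeting median, log2; matched to mean KSR1 knockdown profile by Pearson correlation and euclidean distance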. Scale: mean correlation with KSR1 profile and KSR1 correlation: higher = expression change more like KSR1 knockdown; mean distance from KSR1 profile: higher = expression change less like KSR1 knockdown.
In all, the deposit lists about 14,000 reagents; this is a part drawn at random. 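Higher correlation or smaller distance means closer resemblance to KSR1 loss; control wells, including KSR1 knockdowns, recur on many plates.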 Not stated in the record: the time to read-out.

no.	target	PubChem SID	mean correlation with KSR1 profile	mean distance from KSR1 profile	KSR1 correlation, replicate 1	KSR1 correlation, replicate 2	KSR1 correlation, replicate 3
1	HPS4	SID364002313	0.0553	1.75	0.354	-0.367	0.334
2	TXNL1	SID363995742	-0.758	1.79	-0.779	-0.651	-0.679
3	ADH4	SID363991969	-0.34	1.75	-0.347	-0.193	-0.353
4	BCAP29	SID364001217	-0.124	2.03	-0.187	-0.202	-0.113
5	ZMYND12	SID364003852	-0.154	1.88	-0.253	-0.319	0.0808
6	PRKCH	SID363997078	0.511	3.87	0.674	0.603	0.126
7	CTSD	SID363993122	0.242	1.77	0.689	0.494	-0.103
8	KRT19	SID363993474	-0.306	1.78	-0.134	-0.4	-0.3
9	HMCES	SID364001540	0.262	2.71	0.165	0.354	0.378
10	MMP19	SID363993607	0.847	1.14	0.629	0.838	0.698
11	AARS1	SID363992832	0.873	2.43	0.867	0.878	0.872
12	PIK3R1	SID364004934	0.792	2.32	0.917	0.622	0.592
13	PMM2	SID363991635	0.435	1.37	0.403	0.464	0.373
14	SLC25A27	SID363995272	-0.0981	2.88	-0.199	-0.182	-0.154
15	PHF2	SID363996302	0.692	0.996	0.545	0.923	0.637
16	FXYD6	SID364002276	-0.532	7.31	-0.371	-0.239	-0.417
17	EHMT1	SID364003032	0.591	2.04	0.637	0.723	0.433
18	RCBTB1	SID364000861	-0.445	3.1	-0.282	-0.562	-0.533
19	BAG3	SID363995276	0.371	1.94	0.693	-0.0279	0.638
20	GORASP2	SID363999553	0.00153	1.9	0.299	-0.166	-0.105
21	HCN2	SID363992482	0.635	1.55	0.425	0.639	0.787

Part of the list above, reduced to “KSR1 correlation, replicate 1”.
KRT19 [SID363993474]	-0.134
HMCES [SID364001540]	0.165
MMP19 [SID363993607]	0.629
AARS1 [SID363992832]	0.867

Additional reagents follow.
no.	target	PubChem SID	mean correlation with KSR1 profile	mean distance from KSR1 profile	KSR1 correlation, replicate 1	KSR1 correlation, replicate 2	KSR1 correlation, replicate 3
22	RPF2	SID364003826	0.0409	2.52	0.0261	-0.0863	0.0105
23	NTSR1	SID363993703	0.717	1.3	0.74	0.612	0.833
24	TPST2	SID363994675	-0.488	2.57	-0.27	-0.62	-0.475
25	HCLS1	SID363996251	0.294	2.34	0.247	0.081	0.458
26	SIX3	SID363996319	0.493	1.43	0.721	0.789	0.18
27	PTPRJ	SID363993999	0.75	2.04	0.869	0.79	0.433
28	SIN3A	SID363999523	0.0742	3.08	-0.000366	0.122	-0.0378
29	DHFRP3	SID363991352	-0.0906	1.78	0.0965	-0.222	-0.225
30	SLC16A5	SID363995655	-0.69	3.44	-0.735	-0.664	-0.554
31	MTSS1	SID363999081	-0.471	1.98	-0.364	-0.433	-0.347
32	SNRPE	SID363994238	-0.0525	3.98	-0.155	0.0184	-0.0691
33	THSD7B	SID364005185	-0.317	1.84	-0.457	-0.383	-0.115
34	RRAS2	SID363998173	-0.0318	1.94	-0.283	0.0242	0.127
35	DMRT3	SID364002120	-0.89	3.35	-0.726	-0.889	-0.973
36	CFL1	SID363996408	-0.333	4.02	-0.393	-0.221	-0.173
37	PBX1	SID363993754	-0.531	2.35	-0.532	-0.575	-0.474
38	AP3M1	SID363998044	0.00391	1.14	-0.267	-0.376	-0.339
39	ORM1	SID363991925	0.56	1.55	0.736	0.696	0.401
40	MYO7B	SID364005365	0.271	0.787	0.558	-0.0737	0.208
41	MROH9	SID364003229	0.64	1.25	0.602	0.686	0.307
42	KL	SID364004781	-0.0942	2.06	-0.0496	0.025	0.189
43	NSMCE4A	SID364000394	-0.142	3.3	0.0217	-0.158	-0.199
44	ST6GALNAC1	SID364001053	-0.191	2.64	-0.269	-0.304	-0.0503
45	CTRL	SID363993120	0.199	1.64	0.331	0.446	0.428
46	CELF2	SID363997352	0.448	2.49	0.377	0.583	0.572
47	CCL8	SID363996517	-0.372	1.63	-0.218	-0.586	-0.319
48	CXCL5	SID363994144	-0.231	2.27	-0.325	-0.327	-0.296
49	STAG3	SID363998323	0.302	1.66	0.255	0.01	0.417
50	KCTD5	SID364001313	-0.457	2.48	-0.463	-0.292	-0.552
